According to US20100081638A1 (KOREA RESEARCH INSTITUTE OF BIOSCIENCE AND BIOTECHNOLOGY, published 2010):
No constants are given. Whether binding was seen depends on the method and setting. Some results given as binding are weak or reduced against the parent protein; the word gives no strength.

Protein sequences, listed by entry. Tags and fused reporters are not part of them.
UniProt P49023: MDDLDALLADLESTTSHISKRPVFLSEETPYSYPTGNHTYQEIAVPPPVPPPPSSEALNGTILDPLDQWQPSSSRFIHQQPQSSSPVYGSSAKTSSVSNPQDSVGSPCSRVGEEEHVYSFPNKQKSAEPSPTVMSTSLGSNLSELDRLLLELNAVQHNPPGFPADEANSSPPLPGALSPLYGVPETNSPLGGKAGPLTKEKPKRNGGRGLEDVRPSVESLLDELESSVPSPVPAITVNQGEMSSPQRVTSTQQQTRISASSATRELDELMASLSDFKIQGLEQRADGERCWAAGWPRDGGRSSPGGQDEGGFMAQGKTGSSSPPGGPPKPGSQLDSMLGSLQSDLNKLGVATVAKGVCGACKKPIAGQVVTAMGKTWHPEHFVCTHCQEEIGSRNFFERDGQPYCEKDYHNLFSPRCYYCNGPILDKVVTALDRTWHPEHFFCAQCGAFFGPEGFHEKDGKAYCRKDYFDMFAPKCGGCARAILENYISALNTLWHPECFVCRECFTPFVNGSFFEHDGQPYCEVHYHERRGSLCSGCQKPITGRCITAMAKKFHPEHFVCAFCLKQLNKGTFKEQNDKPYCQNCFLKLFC

Experiments:
paxillin [1] = target: paxillin (UniProt P49023); assay: physical association in SNU449 cell lysates (FIG. 10 legend)
paxillin [2] = target: paxillin (UniProt P49023); assay: physical association in SNU449 cell lysates with or without tiarellic acid (FIG. 10; method not described)

- binding (paxillin [1]): binds
- binding (paxillin [2]): binds
B1: p130Cas (other, UniProt P56945 1-870, looked up)
chain: MNHLNVLAKALYDNVAESPDELSFRKGDIMTVLEQDTQGLDGWWLCSLHGRQGIVPGNRLKILVGMYDKKPAGPGPGPPATPAQPQPGLHAPAPPASQYTPMLPNTYQPQPDSVYLVPTPSKAQQGLYQVPGPSPQFQSPPAKQTSTFSKQTPHHPFPSPATDLYQVPPGPGGPAQDIYQVPPSAGMGHDIYQVPPSMDTRSWEGTKPPAKVVVPTRVGQGYVYEAAQPEQDEYDIPRHLLAPGPQDIYDVPPVRGLLPSQYGQEVYDTPPMAVKGPNGRDPLLEVYDVPPSVEKGLPPSNHHAVYDVPPSVSKDVPDGPLLREETYDVPPAFAKAKPFDPARTPLVLAAPPPDSPPAEDVYDVPPPAPDLYDVPPGLRRPGPGTLYDVPRERVLPPEVADGGVVDSGVYAVPPPAEREAPAEGKRLSASSTGSTRSSQSASSLEVAGPGREPLELEVAVEALARLQQGVSATVAHLLDLAGSAGATGSWRSPSEPQEPLVQDLQAAVAAVQSAVHELLEFARSAVGNAAHTSDRALHAKLSRQLQKMEDVHQTLVAHGQALDAGRGGSGATLEDLDRLVACSRAVPEDAKQLASFLHGNASLLFRRTKATAPGPEGGGTLHPNPTDKTSSIQSRPLPSPPKFTSQDSPDGQYENSEGGWMEDYDYVHLQGKEEFEKTQKELLEKGSITRQGKSQLELQQLKQFERLEQEVSRPIDHDLANWTPAQPLAPGRTGGLGPSDRQLLLFYLEQCEANLTTLTNAVDAFFTAVATNQPPKIFVAHSKFVILSAHKLVFIGDTLSRQAKAADVRSQVTHYSNLLCDLLRGIVATTKAAALQYPSPSAAQDMVERVKELGHSTQQFRRVLGQLAAA
notes: Endogenous protein in lysates of SNU449 cell lines
